1 substance from paper PMC5258865 can be followed below.

The experiment has as its target T1, OsASR5, BiFC fusion (rice (Oryza sativa L. ssp. japonica)) (UniProt Q53JF7).
T1 sequence: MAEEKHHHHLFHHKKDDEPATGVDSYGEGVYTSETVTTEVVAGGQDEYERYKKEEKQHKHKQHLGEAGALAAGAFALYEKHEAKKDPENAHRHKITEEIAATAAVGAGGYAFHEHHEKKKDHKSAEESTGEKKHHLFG
In words: split reporter; BiFC in tobacco epidermal cells and in rice protoplasts; signal in the chloroplasts.

Results are given in words; binding and its absence hold for the method and conditions named. Binding seen in cells or lysates may run through a third protein. Binding can be weak; no strength is given. Sequences can lack the tags named with a protein.

For the substance “OsHSP40, BiFC fusion (rice (Oryza sativa))”, the binding result is given as “binds”.
